Patent US10076576B2, “Minimally toxic prodrugs” (priority 2012, dated 2018)
“Also recorded” adds a separate entry of the source. At least one peptide structure holds a part that was inferred or is arguable (an end, a ring closure or a residue).

The chains behind the UniProt entries cited, without tags or fusion partners.
UniProt P27487, whole entry: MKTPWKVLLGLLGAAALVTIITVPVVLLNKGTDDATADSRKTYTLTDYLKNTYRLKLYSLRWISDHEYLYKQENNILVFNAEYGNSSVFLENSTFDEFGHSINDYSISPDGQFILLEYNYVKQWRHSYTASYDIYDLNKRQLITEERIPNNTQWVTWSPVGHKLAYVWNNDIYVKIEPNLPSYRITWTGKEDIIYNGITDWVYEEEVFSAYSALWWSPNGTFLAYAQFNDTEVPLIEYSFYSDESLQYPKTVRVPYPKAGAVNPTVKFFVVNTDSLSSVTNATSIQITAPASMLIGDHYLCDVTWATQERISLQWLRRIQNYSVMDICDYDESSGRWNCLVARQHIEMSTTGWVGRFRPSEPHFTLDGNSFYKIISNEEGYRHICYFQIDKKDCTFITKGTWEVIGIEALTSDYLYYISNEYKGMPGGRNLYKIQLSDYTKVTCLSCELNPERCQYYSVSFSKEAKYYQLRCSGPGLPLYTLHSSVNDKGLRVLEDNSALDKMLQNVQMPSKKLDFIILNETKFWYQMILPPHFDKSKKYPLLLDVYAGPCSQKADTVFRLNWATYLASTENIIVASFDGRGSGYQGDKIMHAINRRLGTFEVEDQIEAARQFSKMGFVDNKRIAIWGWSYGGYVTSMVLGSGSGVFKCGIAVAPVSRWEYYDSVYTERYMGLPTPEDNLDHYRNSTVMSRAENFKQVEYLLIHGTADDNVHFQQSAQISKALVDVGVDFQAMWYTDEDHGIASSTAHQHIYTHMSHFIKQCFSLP

Legend:
[1] = test system: LS-174T tumor cell secreted peptidases; assay: Reactivation assay in LS174T tumor cell conditioned medium; type: biochemical, human; conditions: 5 h at 37° C.; for % Dox detected after 5 h (LS174T conditioned medium): metabolite Dox
Procedure: Sub-confluent cultures of LS-174T tumor cells were washed twice with a saline phosphate buffer solution, and fresh culture medium (DMEM-F12 without phenol red) containing 0.02% bovine serum albumin is added (100 μl/cm^2). After 24 hours incubation, the conditioned medium is collected, centrifuged for 10 minutes at 300 g, buffered with 1 M Tris-HCl, pH 7.4 (1 volume of buffer+19 volumes of medium) and concentrated 20 times by […] (cutoff threshold of 10 kDa).
Drug compounds (50 μM) were incubated for 0, 1, 3 or 5 hours at 37° C. in the presence of freshly prepared LS174T tumor cell conditioned medium. Fifty μL of sample were collected at each time point and processed as described above for human plasma.

[2] = molecular target: CD26 (Homo sapiens, UniProt P27487); assay: Reactivation assay with purified CD26; type: biochemical; conditions: CD26 1 μg/ml
Procedure: (§1) TOP (recombinant human thimet oligopeptidase, R&D systems, Ref 3439-ZN) was diluted at 10 nM in a solution of 50 mM Tris-HCl pH 7.4/0.5M NaCl/0.1M DTT. CD26 and FAP were diluted at 1 μg/mL in a Tris-HCl pH 7.5 buffer. Reactions were initiated by addition of 50 μM of each compound to enzymes solutions (1 V enzyme solution+1 V 100 μM drug solution). Samples were incubated for 0, 1, or 3 hours at 37° C. in a water bath in the presence of purified enzymes. Fifty μL of sample were collected at each time point and processed as described above for human plasma. Activation of Suc-βALAL-dox was tested in parallel as a reference.

[3] = molecular target: T1, FAP (Homo sapiens, UniProt Q12884); assay: Reactivation assay with purified FAP; type: biochemical
T1 sequence (Q12884 1-760): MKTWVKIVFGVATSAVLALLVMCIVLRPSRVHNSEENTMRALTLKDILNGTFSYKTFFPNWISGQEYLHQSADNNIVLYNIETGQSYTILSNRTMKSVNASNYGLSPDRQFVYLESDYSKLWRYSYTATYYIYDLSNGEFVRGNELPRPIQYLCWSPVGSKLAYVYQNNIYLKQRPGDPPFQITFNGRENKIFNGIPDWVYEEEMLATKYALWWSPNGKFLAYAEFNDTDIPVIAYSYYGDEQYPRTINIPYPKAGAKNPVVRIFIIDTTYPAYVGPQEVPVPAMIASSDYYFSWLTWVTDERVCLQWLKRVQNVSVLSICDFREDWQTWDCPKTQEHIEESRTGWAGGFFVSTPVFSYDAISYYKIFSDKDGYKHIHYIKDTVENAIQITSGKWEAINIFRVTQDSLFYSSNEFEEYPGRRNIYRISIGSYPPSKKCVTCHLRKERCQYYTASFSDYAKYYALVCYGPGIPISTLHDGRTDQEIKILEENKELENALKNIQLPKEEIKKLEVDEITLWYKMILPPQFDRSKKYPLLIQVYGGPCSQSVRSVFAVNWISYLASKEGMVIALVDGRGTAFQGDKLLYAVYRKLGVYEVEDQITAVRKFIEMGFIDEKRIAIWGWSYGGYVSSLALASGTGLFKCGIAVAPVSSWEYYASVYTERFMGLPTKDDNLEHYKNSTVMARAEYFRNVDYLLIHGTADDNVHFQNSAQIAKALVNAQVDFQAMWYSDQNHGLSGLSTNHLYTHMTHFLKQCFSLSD
Procedure: as §1

| Compound | % Dox detected after 5 h (LS174T conditioned medium) [1] | hydrolysis by CD26 (in words) [2] | % GP-Dox detected after 5 h (LS174T conditioned medium) ([1]; metabolite GP-Dox) | hydrolysis by FAP (in words) [3] |
| --- | --- | --- | --- | --- |
| COc1cccc2c1C(=O)c1c(O)c3c(c(O)c1C2=O)C[C@@](O)(C(=O)CO)C[C@@H]3O[C@H]1C[C@H](NC(=O)[C@@H]2CCCN2C(=O)CN)[C@H](O)[C@H](C)O1 [GP-Dox, NH2-Gly-Pro-Doxorubicin] | Dox (28%) |  |  |  |
| COc1cccc2c1C(=O)c1c(O)c3c(c(O)c1C2=O)C[C@@](O)(C(=O)CO)C[C@@H]3O[C@H]1C[C@H](NC(=O)[C@@H]2CCCN2C(=O)CNC(=O)[C@@H](N)CC(C)C)[C@H](O)[C@H](C)O1 [LGP-Dox] | Dox (23%) + | Neither CD26 nor FAP hydrolized; also recorded: did not hydrolyze | GP-Dox (77%) | Neither CD26 nor FAP hydrolized; also recorded: did not hydrolyze |
